Assay results from patent US9034645B2, “Methods of identifying inhibitors of gene silencing in mammalian cells” (Oregon Health & Science University, priority 2008, dated 2015).
For at least one compound, name, drawing or mass did not settle the structure.

Tests used:
Ptet-HPRT [1] = assay: Induction of silencing via repression of Ptet-HPRT by Dox (TG resistance frequency); type: cell-based, mouse; conditions: Dox exposure 3 days to 3 weeks (FIG. 2)
Description: FIG. 2 is a bar graph showing silencing frequency as a function of time of Dox exposure. HPRT 3 cells with Ptet-HPRT were exposed to 1 μM Dox for the times indicated before being released from Dox and selected with 6-thioguanine (TG). TG resistance frequencies are plotted. No TG resistant clones were identified after one or two weeks of growth in medium without Dox. The HPRT 3 cell line was created by inserting the Ptet-HPRT construct and the tet-responsive transcription activator construct into the genome of a mouse cell line termed DIF6.
To determine if gene repression could induce silencing, three cell lines expressing HPRT under control of the Ptet promoter (Ptet-HPRT) were exposed to Dox for 7 days and then selected with TG in the absence of Dox. These cells lines were chosen because 1) each gave few or no spontaneous TG resistant clones and 2) Ptet-HPRT was integrated near the bacterial puromycin (pur) selectable gene, which allowed puromycin selection to be used to prevent deletion of Ptet-HPRT. […] For this experiment, 1×10^6 cells were exposed to 1 μM Dox for 7 days, the Dox was removed from the medium, the cells re-plated in 100 mm dishes at a density of 1×10^5 cells per dish and exposed to TG (5 μg/ml) and puromycin (1.5 μg/ml).

Ptet-HPRT [2] = assay: HPRT mRNA by qRT-PCR in Ptet-HPRT cells exposed to Dox; type: cell-based, mouse; conditions: 1 μM Dox
Source text: The cell lines described in Example 1 were used to determine if gene silencing can be induced by transient reduction of gene expression. […] In other words, Dox can reduce but not eliminate gene expression. HPRT mRNA was restored to the original levels observed in the absence of Dox within 2 days after Dox was removed from the medium.

**Q.** How did the “frequency of TG resistant clones as a function of time of Dox exposure” value (Ptet-HPRT [1]) turn out when `C[C@H]1c2cccc(O)c2C(=O)C2=C(O)[C@]3(O)C(=O)C(C(N)=O)=C(O)[C@@H](N(C)C)[C@@H]3[C@@H](O)[C@@H]21` [Dox, doxycycline] was run?
**A.** Its value is “time dependent increase”.

**Q.** And the “HPRT mRNA in the presence of Dox” value (Ptet-HPRT [2])?
**A.** The value was “reduced significantly”.
